Measurements reported in PubChem BioAssay AID1259425 (University of Nebraska Medical Center, 2018).
Here is one part, drawn at random, of about 14,000 deposited reagents. Not all columns of the deposit are shown. Reagent sequences are not shown. Not stated in the record: the time to read-out.

Screen: 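Find knockdowns that reproduce the gene expression pattern seen when KSR1 is lost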 (primary screen)
System: HCT116 human colon cancer cells
Reagent: siRNA pool against human genes, 50 nM siRNA
Measurement: 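mRNA of six signature genes measured together by branched-DNA assay after 50 nM siRNA pool, blank removed, divided by geometric mean of two housekeeping genes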
Reading the numbers: BNIP3L mRNA: higher = more BNIP3L transcript after knockdown; NDRG1 mRNA: higher = more NDRG1 transcript after knockdown

For TRPV2 [SID363999882], how do the results read?
BNIP3L mRNA, set 1: 0.108; NDRG1 mRNA, set 1: 0.201

Which result is listed for TRAPPC3 [SID363998828]?
BNIP3L mRNA, set 1: 0.116; NDRG1 mRNA, set 1: 0.139

For SLBP [SID363997321], what was measured?
BNIP3L mRNA, set 1: 0.0671; NDRG1 mRNA, set 1: 0.112

What did the screen give for HPF1 [SID364000597]?
BNIP3L mRNA, set 1: 0.154; NDRG1 mRNA, set 1: 0.216

What is on record for MYT1L [SID364005123]?
BNIP3L mRNA, set 1: 0.105; NDRG1 mRNA, set 1: 0.144

For ACSL5 [SID363999969], what was measured?
BNIP3L mRNA, set 1: 0.132; NDRG1 mRNA, set 1: 0.299

With ERBB2 [SID363995430], what was measured?
BNIP3L mRNA, set 1: 0.106; NDRG1 mRNA, set 1: 0.187

For RHBG [SID364001671], what was measured?
BNIP3L mRNA, set 1: 0.289; NDRG1 mRNA, set 1: 0.84

Which result is listed for NIPBL [SID363999459]?
BNIP3L mRNA, set 1: 0.179; NDRG1 mRNA, set 1: 0.358

How did the screen score UBA1 [SID363994450]?
BNIP3L mRNA, set 1: 0.123; NDRG1 mRNA, set 1: 0.403

With SERAC1 [SID364004235], how do the results read?
BNIP3L mRNA, set 1: 0.155; NDRG1 mRNA, set 1: 0.231

For MAPK13 [SID363993912], what does the deposit list?
BNIP3L mRNA, set 1: 0.166; NDRG1 mRNA, set 1: 0.0372

As entered above.
Value for SERAC1 [SID364004235] under “NDRG1 mRNA, set 1”: 0.231
For “BNIP3L mRNA, set 1”, ERBB2 [SID363995430] is entered as 0.106

Continued:
With TGM3 [SID363994366], how do the results read?
BNIP3L mRNA, set 1: 0.12; NDRG1 mRNA, set 1: 0.252

With COL1A2 [SID363991426], how do the results read?
BNIP3L mRNA, set 1: 0.119; NDRG1 mRNA, set 1: 0.711

With TRPV5 [SID364001447], how do the results read?
BNIP3L mRNA, set 1: 0.093; NDRG1 mRNA, set 1: 0.147

For RGS4 [SID363996508], what was measured?
BNIP3L mRNA, set 1: 0.136; NDRG1 mRNA, set 1: 0.241

For S1PR3 [SID363996148], what does the deposit list?
BNIP3L mRNA, set 1: 0.133; NDRG1 mRNA, set 1: 0.283

How did the screen score PDZK1 [SID363993782]?
BNIP3L mRNA, set 1: 0.0843; NDRG1 mRNA, set 1: 0.463

What is on record for WASHC4 [SID363999391]?
BNIP3L mRNA, set 1: 0.169; NDRG1 mRNA, set 1: 0.826
